Laboratory results: PubChem BioAssay AID1508597 (Cure First, 2020)
Purpose: 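Genes whose silencing sensitises or protects ovarian cancer cells against rucaparib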 (primary screen). System: human ovarian carcinoma lines grown from tumours: OCI-P5x (papillary serous) and OCI-C5x (clear cell). Reagents: siRNA pool against human genes, 1.25 pmol siRNA per well. Timing: 72 h or 96 h, depending on the cell culture. Challenge: rucaparib 20 µM (about IC30) or vehicle, present until read-out. Rucaparib or vehicle: Rucaparib. Cell line: OCI-C5x (clear cell). Measurement: 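ATP luminescence measured at 72 or 96 h according to the culture, then normalised and expressed as percent viability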. Scale: viability, normalised: higher = more viable cells remaining. Rule for the call: 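a well counts as a hit if its normalised viability is under 80 percent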. Calls: active = viability under 80%; inactive = viability 80% or more.
Shown is a random part of the about 2,100 reagents, under one of the conditions tested. 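Calls flag viability under 80% in either arm, not effects specific to rucaparib; the reference for percent is not stated.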 Unmarked entries are inactive. Some reagents were tested in more than one well and are listed for each. Not stated in the record: the 100% reference.

target gene | technical replicate | viability, normalised (%)
MAP3K1 | 1 | 58.3 (active)
MAP3K1 | 2 | 53 (active)
MAP3K1 | 3 | 34.8 (active)
ENPP2 | 1 | 62.7 (active)
ENPP2 | 2 | 60.6 (active)
ENPP2 | 3 | 51.9 (active)
BRD8 | 1 | 43.2 (active)
BRD8 | 2 | 49.2 (active)
BRD8 | 3 | 51.3 (active)
BMP2 | 1 | 45.8 (active)
BMP2 | 2 | 40.3 (active)
BMP2 | 3 | 42.4 (active)
BRD4 | 1 | 48.2 (active)
BRD4 | 1 | 48.4 (active)
BRD4 | 1 | 60.2 (active)
BRD4 | 1 | 67.1 (active)
BRD4 | 2 | 59.6 (active)
BRD4 | 2 | 52.9 (active)
BRD4 | 2 | 53.8 (active)
BRD4 | 2 | 43.3 (active)
BRD4 | 3 | 58.1 (active)
BRD4 | 3 | 54.1 (active)
BRD4 | 3 | 49 (active)
BRD4 | 3 | 44.7 (active)
CDKL5 | 1 | 65.5 (active)
CDKL5 | 2 | 75.6 (active)
CDKL5 | 3 | 73.6 (active)
MRPL58 | 1 | 60.5 (active)
MRPL58 | 1 | 61 (active)
MRPL58 | 2 | 37.7 (active)
MRPL58 | 2 | 67.7 (active)
MRPL58 | 3 | 60.4 (active)
MRPL58 | 3 | 51.8 (active)
MED29 | 1 | 41.6 (active)
MED29 | 2 | 44.3 (active)
MED29 | 3 | 40.7 (active)
PRDM4 | 1 | 60.8 (active)
PRDM4 | 2 | 57.1 (active)
PRDM4 | 3 | 51.4 (active)
MRGBP | 1 | 45 (active)
MRGBP | 2 | 42.6 (active)
MRGBP | 3 | 40.1 (active)
KIF11 | 1 | 33.5 (active)
KIF11 | 2 | 34.7 (active)
KIF11 | 3 | 28.1 (active)
DPF3 | 1 | 73.5 (active)
DPF3 | 2 | 51.8 (active)
DPF3 | 3 | 50.2 (active)
SPEG | 1 | 41.3 (active)
SPEG | 1 | 78.8 (active)
SPEG | 2 | 61.9 (active)
SPEG | 2 | 53.8 (active)
SPEG | 3 | 60.8 (active)
SPEG | 3 | 60.1 (active)
CHD5 | 1 | 47.1 (active)
CHD5 | 2 | 44.8 (active)
CHD5 | 3 | 46.1 (active)
